In the supplement of paper PMC8256030:
Values joined by “and” are separate entries in the source; they are usually repeats but may differ in a detail not shown here. Identical values can stand only once. The list shows a part of the results. Repeats in this data set agree poorly, so a single value says little.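 HEK293T cells were given each compound shortly before transfection with a reporter in which red mCherry is followed by the SARS-CoV-2 frameshift element and then GFP in the −1 frame, so GFP appears only after frameshifting.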

What follows are compounds tested on HEK293T (assay: percent viability (nuclei count) relative to control; higher = more viable cells). Details: 10 µM; 24 h.
Compound `CN(N=O)C(=O)N[C@@H]1[C@@H](O)[C@H](O)[C@@H](CO)O[C@@H]1O` [streptozocin] has a percent viability of 145%. Compound `O=C1c2c(O)cccc2C(C2OC(CO)C(O)C(O)C2O)c2cc(CO)cc(O)c21` (stereo unspecified) has a percent viability of 317%. `NCCCCC(N)C(=O)O` (stereo unspecified) was tested, and the percent viability was 221% and 213%. With `CN(C/C=C/c1ccccc1)Cc1cccc2ccccc12` the percent viability was 385%. `O=C1c2ccccc2C(=O)C1c1ccc(Br)cc1` [bromindione] was tested, and the percent viability was 294%. `C=CC[N+]1([C@H]2C[C@H]3[C@@H]4CC[C@H]5C[C@H](O)[C@@H](N6CCOCC6)C[C@]5(C)[C@H]4CC[C@]3(C)[C@H]2OC(C)=O)CCCC1` [rocuronium bromide] gave a percent viability of 107%.
